According to US5935811:
For some assays here: Where cells or extracts were used, other partners may take part. For some assays here: No signal at the amounts used counts as a negative. For some assays here: Protein sequences can lack the tags named with them. For some assays here: For at least one entry, the source does not settle the construct or the ends of the probe.

Key:
[1] = molecular target: T1, NRSF/REST (native) (Homo sapiens) (UniProt Q13127); assay: EMSA; conditions: protein in an extract, protein details: HeLa nuclear extract
T1 sequence (looked up, limits assumed): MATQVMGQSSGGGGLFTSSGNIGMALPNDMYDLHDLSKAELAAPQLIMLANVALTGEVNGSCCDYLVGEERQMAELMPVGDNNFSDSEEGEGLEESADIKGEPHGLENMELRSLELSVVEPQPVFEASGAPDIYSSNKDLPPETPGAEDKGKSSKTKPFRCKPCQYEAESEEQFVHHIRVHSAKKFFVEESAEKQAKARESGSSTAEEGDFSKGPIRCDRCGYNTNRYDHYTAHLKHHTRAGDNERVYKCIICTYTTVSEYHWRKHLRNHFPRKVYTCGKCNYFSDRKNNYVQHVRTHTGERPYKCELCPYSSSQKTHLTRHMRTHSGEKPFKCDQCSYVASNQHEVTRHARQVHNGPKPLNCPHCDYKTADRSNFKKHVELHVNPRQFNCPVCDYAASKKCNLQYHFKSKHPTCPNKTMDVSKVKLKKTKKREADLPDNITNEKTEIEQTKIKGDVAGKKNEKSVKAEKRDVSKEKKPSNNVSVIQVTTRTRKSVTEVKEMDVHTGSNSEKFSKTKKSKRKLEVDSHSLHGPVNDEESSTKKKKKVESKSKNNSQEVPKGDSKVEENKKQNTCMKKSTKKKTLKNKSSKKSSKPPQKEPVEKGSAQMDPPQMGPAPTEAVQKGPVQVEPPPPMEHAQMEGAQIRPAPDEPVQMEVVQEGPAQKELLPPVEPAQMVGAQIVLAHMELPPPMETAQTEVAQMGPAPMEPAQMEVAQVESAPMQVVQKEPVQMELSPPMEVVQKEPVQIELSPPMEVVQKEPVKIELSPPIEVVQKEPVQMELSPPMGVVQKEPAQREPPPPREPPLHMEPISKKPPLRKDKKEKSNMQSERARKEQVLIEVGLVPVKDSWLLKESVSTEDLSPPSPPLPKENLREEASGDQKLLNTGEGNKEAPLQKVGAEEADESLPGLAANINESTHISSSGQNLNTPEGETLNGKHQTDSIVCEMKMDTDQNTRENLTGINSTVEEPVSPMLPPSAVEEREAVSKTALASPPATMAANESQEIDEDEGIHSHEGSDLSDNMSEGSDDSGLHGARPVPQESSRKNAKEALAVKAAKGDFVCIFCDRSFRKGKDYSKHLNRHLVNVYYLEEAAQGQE

[2] = tested on: NRSF/REST (lambda-H1 encoded partial protein) (Homo sapiens); assay: EMSA; conditions: protein translated in vitro, protein details: poly-histidine (pRSET B fusion)
[3] = molecular target: T2, NRSF/REST (lambda-HZ4 partial) (Homo sapiens) (UniProt Q13127); assay: activity in cells; conditions: pCAT3-S36++ CAT reporter, two NRSE copies, PC12 cells; protein in cells; protein details: initiating Met from pcDNA3-ATG vector; only the site is given
T2 sequence: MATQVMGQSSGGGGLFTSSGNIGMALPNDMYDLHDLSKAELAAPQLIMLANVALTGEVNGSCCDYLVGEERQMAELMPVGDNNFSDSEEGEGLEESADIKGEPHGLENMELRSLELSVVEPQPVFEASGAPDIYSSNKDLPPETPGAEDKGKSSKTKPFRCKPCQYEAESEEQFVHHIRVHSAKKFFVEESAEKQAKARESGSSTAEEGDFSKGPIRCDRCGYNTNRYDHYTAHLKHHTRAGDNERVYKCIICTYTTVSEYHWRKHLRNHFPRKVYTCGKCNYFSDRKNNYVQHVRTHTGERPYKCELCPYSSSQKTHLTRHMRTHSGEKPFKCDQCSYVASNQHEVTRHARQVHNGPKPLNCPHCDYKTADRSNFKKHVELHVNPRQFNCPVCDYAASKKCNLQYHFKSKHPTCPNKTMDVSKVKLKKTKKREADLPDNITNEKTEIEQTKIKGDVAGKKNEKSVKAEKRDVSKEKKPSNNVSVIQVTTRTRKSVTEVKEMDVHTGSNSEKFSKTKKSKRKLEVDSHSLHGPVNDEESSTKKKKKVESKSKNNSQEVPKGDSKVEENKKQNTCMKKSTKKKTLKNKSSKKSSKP

[4] = molecular target: T1, NRSF/REST (native) (Homo sapiens); assay: competition with a labelled probe; conditions: no competition of S36 complex in EMSA; protein in an extract; protein details: HeLa nuclear extract
[5] = tested on: NRSF/REST (lambda-H1 encoded partial protein) (Homo sapiens); assay: competition with a labelled probe; conditions: no competition of S36 complex in EMSA; protein translated in vitro; protein details: poly-histidine (pRSET B fusion)
[6] = restriction fragment probe containing the NRSE, label: 32P

“ATTGGGTTTCAGAACCACGGACAGCACCAGAGT (double strand) [Na33 (type II sodium channel NRSE)]”: binds [1]; binds [2].

For “AGCTGCAAAGCCATTTCAGCACCACGGAGAGTGCCTCTGC (double strand) [S36 (SCG10 NRSE)]”, the “activity on this sequence” value [3] was “active”, the binding result ([1]; HeLa nuclear extract, partially supershifted, label: 32P) was “binds” and the binding result ([2]; probe with two tandem S36 copies, supershifted by anti-GST-lambda-H1, label: 32P) was “binds”.

“AGAGTCCATTCAGCACCTTGGACAGAGCCAGCGG (double strand) [BDNF NRSE]”: binds ([1]; label: 32P); binds [2, 6].

“GCGGAACGGAAGCGGAAACCG (double strand) [Ets factor site]”: no binding [4]; no binding [5].

“ATGCCAGCTTCAGCACCGCGGACAGTGCCTTCC (double strand) [Syn (synapsin I NRSE)]”: binds ([1]; label: 32P); binds [2, 6].
